Experimental data published in patent US20230218559A1, “Compositions and Methods for Treating Aging and Age-Related Diseases and Symptoms” (The Regents of the University of California, priority 2014, published 2023).

Test system: C. elegans
Test: Oxidative stress in worms (DCF fluorescence, OxyBlot)
Format: in vivo, Caenorhabditis elegans
Conditions: 8 mM

O=C(O)CCC(=O)C(=O)O [α-KG, α-ketoglutarate]
DCF fluorescence (ROS levels) (1 day, HT115 and OP50 fed worms, P=0.0007 and P=0.0012): higher
protein oxidation (OxyBlot) (adult day 2 and day 3): no significant change
